Results are given in words; binding and its absence hold for the method and conditions named. In cells and extracts the contact can be indirect. These calls come from enrichment with a bait or labelling near it, and not all partners need be listed. Sequences can lack the tags named with a protein.

By UniProt entry, the sequences of proteins in these tests, tags left out.
UniProt Q62261: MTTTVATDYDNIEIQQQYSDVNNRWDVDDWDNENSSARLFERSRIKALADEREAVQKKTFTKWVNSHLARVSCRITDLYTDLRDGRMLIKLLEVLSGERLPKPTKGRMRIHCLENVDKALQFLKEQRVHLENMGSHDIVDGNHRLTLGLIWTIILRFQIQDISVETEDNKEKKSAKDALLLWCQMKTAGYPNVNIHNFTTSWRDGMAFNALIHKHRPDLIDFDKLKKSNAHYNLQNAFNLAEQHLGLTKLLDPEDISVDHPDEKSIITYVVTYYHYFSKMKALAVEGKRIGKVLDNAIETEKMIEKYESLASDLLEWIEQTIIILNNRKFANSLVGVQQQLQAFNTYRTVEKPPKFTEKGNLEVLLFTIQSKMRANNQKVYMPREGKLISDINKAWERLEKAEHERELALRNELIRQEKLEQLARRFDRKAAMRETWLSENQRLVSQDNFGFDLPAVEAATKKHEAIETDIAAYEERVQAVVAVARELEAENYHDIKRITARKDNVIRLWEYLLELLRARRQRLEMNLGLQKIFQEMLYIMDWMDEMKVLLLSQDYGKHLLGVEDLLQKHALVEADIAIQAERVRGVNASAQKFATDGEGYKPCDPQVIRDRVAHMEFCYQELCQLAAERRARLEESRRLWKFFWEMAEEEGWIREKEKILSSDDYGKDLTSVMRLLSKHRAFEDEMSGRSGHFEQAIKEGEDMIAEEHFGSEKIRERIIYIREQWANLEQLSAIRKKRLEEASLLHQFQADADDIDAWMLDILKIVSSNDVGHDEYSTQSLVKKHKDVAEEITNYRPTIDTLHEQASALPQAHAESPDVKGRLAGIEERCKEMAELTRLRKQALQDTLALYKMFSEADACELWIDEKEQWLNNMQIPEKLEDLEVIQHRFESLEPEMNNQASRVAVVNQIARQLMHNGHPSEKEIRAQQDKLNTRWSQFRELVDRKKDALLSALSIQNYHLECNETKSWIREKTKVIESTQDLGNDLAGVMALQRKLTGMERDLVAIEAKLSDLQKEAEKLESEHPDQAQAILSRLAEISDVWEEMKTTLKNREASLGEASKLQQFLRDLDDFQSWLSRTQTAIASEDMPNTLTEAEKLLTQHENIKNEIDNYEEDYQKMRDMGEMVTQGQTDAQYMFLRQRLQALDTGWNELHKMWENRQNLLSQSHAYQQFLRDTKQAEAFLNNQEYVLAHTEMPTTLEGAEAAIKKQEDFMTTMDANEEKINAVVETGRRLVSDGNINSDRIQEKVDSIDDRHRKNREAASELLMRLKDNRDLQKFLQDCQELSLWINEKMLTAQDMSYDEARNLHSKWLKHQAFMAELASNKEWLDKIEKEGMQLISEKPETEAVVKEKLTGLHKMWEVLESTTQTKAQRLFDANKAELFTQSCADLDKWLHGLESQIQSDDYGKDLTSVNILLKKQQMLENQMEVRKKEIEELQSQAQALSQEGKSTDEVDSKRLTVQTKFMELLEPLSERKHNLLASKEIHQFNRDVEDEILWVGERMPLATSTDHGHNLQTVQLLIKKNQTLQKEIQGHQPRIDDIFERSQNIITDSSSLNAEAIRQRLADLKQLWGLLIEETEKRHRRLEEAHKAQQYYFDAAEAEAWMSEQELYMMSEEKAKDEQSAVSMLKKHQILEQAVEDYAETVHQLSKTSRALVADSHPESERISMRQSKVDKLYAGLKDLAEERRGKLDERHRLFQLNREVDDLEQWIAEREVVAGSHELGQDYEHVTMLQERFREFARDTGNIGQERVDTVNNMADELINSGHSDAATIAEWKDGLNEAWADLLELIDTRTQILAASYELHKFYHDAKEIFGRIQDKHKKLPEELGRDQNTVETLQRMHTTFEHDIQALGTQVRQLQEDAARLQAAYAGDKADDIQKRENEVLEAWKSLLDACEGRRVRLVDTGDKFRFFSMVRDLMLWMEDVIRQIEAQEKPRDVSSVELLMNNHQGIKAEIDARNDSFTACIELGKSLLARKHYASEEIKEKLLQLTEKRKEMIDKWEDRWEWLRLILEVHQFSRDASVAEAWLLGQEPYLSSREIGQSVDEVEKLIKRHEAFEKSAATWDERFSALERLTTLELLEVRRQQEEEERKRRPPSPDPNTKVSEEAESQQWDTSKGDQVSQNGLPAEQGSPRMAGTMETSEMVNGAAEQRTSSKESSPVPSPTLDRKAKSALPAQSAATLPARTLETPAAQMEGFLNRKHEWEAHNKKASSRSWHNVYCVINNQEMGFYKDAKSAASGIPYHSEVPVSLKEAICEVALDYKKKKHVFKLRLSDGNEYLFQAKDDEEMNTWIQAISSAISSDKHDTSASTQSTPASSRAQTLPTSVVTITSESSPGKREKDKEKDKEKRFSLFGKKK
UniProt Q8C8R3: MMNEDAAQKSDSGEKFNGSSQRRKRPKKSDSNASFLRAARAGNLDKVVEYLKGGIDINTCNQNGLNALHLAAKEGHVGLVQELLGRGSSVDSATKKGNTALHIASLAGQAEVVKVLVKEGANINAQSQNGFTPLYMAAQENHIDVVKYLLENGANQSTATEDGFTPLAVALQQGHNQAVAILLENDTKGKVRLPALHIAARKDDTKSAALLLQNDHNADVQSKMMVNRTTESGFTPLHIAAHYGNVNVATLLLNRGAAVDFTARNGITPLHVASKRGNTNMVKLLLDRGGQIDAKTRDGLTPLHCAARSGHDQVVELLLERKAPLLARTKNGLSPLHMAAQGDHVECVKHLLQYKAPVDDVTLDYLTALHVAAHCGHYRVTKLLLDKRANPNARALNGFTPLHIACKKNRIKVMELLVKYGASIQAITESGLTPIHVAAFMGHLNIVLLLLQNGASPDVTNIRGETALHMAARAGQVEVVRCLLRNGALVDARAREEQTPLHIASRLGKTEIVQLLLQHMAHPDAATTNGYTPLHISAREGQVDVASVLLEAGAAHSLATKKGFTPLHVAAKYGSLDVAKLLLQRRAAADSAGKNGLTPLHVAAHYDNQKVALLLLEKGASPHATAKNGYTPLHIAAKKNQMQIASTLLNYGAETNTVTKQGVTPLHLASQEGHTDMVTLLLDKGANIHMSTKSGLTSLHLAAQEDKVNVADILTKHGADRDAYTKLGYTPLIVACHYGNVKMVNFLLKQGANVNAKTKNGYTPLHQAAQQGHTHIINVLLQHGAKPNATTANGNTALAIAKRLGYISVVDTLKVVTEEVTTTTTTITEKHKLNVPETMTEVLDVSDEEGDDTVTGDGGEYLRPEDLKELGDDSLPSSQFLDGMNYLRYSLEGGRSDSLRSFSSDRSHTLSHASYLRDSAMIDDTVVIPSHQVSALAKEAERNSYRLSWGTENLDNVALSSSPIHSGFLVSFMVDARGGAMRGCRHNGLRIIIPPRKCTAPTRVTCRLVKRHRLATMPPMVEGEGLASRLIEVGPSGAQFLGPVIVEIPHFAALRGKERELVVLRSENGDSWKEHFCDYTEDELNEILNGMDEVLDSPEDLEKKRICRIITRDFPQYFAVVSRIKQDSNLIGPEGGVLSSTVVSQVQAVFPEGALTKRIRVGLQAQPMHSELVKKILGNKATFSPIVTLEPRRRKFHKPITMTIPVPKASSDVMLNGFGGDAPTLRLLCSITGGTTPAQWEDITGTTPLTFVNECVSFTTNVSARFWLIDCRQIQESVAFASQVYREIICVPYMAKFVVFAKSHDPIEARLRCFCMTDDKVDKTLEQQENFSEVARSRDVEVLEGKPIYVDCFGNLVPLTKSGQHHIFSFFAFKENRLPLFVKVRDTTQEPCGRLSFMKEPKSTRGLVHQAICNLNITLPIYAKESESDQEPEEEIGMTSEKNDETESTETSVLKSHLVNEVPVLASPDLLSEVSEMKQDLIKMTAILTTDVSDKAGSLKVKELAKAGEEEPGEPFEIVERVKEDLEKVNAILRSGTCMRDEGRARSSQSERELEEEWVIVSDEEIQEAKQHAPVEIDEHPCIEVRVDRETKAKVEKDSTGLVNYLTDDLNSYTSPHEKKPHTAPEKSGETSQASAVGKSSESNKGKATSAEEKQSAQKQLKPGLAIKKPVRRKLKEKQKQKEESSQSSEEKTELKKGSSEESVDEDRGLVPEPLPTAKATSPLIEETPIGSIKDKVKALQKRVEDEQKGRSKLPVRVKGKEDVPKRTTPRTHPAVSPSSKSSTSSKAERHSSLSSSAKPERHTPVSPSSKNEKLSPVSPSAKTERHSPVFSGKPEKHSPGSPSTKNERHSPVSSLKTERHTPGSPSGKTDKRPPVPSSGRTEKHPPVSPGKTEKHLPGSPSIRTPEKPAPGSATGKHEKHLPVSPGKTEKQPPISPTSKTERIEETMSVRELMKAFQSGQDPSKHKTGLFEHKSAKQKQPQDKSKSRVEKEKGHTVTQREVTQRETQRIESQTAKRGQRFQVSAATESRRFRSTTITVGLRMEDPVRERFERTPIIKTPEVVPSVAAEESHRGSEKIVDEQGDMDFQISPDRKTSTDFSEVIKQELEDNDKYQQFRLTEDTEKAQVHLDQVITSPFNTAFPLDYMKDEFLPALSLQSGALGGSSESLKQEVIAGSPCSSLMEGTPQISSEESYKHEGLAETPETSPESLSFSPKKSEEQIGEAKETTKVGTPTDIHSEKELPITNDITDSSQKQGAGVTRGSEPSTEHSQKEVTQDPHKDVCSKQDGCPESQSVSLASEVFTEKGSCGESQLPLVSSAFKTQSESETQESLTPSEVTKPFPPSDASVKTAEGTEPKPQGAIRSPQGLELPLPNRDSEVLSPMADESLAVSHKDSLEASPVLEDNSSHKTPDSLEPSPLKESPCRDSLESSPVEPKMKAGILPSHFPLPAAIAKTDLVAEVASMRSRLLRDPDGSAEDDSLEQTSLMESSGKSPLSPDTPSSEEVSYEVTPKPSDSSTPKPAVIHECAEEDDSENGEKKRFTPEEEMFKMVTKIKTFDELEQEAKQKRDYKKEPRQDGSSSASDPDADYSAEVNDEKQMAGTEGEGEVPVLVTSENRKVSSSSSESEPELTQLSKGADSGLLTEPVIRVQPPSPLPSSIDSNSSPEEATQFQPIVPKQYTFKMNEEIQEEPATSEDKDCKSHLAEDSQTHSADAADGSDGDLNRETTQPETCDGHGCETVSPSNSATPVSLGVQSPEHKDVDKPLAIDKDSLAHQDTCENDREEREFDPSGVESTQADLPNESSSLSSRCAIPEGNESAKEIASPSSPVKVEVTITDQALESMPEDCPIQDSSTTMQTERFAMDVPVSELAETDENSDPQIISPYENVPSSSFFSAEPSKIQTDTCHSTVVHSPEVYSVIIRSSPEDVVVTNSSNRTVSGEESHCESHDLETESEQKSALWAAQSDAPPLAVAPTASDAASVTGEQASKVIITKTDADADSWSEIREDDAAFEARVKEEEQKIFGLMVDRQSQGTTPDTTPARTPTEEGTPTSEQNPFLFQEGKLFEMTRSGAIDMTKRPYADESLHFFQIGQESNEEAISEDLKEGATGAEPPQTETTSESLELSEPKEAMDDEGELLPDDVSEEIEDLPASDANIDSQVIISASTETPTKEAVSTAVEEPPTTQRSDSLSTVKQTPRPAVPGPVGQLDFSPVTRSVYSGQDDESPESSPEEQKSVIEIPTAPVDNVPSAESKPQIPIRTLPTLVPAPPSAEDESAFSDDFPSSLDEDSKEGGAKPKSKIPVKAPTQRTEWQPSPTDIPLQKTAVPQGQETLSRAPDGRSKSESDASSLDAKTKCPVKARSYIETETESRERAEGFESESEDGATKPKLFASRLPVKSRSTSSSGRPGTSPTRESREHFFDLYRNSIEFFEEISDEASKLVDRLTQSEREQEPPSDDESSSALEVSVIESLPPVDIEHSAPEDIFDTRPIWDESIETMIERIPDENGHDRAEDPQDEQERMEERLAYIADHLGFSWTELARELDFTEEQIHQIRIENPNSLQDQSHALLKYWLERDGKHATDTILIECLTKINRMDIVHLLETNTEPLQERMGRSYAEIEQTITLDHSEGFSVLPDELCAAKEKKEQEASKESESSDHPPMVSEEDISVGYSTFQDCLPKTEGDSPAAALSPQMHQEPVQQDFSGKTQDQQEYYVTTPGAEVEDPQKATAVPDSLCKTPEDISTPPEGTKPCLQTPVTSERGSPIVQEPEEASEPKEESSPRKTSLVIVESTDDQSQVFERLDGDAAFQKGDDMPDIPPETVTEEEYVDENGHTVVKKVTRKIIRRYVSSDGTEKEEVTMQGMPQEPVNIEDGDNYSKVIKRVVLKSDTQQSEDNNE
UniProt Q8BJH1: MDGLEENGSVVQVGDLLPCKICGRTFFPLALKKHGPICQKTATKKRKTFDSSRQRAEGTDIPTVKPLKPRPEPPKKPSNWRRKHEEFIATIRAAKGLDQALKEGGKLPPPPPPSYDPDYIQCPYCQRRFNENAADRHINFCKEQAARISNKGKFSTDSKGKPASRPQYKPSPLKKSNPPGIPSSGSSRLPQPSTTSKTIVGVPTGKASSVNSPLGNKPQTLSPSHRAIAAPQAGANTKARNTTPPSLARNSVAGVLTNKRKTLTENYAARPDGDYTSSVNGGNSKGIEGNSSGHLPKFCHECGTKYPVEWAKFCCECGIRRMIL

The target of experiment [1] is T1, PCDH19-HA-FLAG (Protocadherin 19, endogenous in Pcdh19-HA-FLAG mice) (mouse (endogenous in mouse brain)) (UniProt Q80TF3).
T1 sequence: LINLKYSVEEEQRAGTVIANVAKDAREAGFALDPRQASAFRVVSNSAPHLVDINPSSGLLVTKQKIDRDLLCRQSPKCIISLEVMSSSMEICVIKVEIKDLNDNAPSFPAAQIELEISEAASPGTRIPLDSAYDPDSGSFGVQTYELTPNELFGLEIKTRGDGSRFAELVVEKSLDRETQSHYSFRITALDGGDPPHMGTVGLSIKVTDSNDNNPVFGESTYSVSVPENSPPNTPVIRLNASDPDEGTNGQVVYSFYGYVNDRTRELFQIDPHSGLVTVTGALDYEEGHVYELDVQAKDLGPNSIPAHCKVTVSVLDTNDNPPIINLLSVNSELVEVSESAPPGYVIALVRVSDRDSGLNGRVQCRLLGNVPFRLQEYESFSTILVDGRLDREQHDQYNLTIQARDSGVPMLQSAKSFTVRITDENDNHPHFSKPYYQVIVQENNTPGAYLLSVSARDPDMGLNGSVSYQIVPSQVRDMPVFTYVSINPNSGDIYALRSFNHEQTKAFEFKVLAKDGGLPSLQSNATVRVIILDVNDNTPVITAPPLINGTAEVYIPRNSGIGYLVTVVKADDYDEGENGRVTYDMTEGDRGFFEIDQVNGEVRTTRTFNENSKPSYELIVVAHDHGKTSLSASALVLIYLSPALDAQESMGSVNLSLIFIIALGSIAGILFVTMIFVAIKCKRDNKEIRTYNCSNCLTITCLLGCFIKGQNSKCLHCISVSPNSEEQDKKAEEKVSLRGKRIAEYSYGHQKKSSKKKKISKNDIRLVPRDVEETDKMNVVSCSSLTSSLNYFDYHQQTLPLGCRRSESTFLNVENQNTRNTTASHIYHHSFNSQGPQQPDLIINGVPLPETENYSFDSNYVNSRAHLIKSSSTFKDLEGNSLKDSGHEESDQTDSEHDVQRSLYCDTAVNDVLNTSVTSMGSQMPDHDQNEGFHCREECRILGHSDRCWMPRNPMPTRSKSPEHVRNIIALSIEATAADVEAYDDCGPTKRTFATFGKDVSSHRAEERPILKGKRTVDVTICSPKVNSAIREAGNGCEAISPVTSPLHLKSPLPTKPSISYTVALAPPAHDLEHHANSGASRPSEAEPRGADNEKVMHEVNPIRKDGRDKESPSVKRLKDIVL
The experiment is described as follows: affinity purification with mass spectrometry; Experiment 2, embryonic: PCDH19-HA-FLAG precipitated with anti-FLAG M2 affinity gel from E17.5-18.5 mouse cortex and hippocampus lysate, control mouse IgG affinity gel; IP Buffer, overnight 4 °C; LC-MS/MS.

For experiment [2], the target named is T1, PCDH19-HA-FLAG (Protocadherin 19, endogenous in Pcdh19-HA-FLAG mice) (mouse (endogenous in mouse brain)). Kind of experiment: affinity purification with mass spectrometry; Experiment 2, postnatal: PCDH19-HA-FLAG precipitated with anti-FLAG M2 affinity gel from P6-7 mouse cortex and hippocampus lysate, control mouse IgG affinity gel; IP Buffer, overnight 4 °C; LC-MS/MS.

The target is the same in experiment [3]. Kind of experiment: affinity purification with mass spectrometry; Experiment 1: PCDH19-HA-FLAG precipitated with anti-FLAG M2 affinity gel from E18.5 mouse cortex lysate, control untagged mice; IP Buffer (50 mM Tris-HCl pH 7.5, 150 mM NaCl, 0.2% Triton-X-100, 2 mM EDTA, 0.01% SDS), overnight 4 °C; LC-MS/MS.

Turning to “Capping Actin Protein Of Muscle Z-Line Subunit Beta (from UniProt P47757 1-277)”, the binding result in experiment [1] was “binds”. Regarding “Protein Phosphatase 1 Regulatory Subunit 9A (mouse (endogenous in mouse brain))”, in experiment [2], the binding result is given as “binds”. In the case of “Potassium Channel Tetramerization Domain Containing 5 (from UniProt Q8VC57 1-234)”, the binding entry in experiment [2] and in experiment [1] was “binds” in each case. Regarding “Actinin Alpha 1 (from UniProt Q7TPR4 1-892)”, in experiment [2], the binding entry is “binds”.

Take “Beta II-spectrin (from UniProt Q62261 1-2363)”: the binding result in experiment [2] was “binds”. As for “Microtubule Associated Protein 2 (from UniProt P20357 1-1828)”, the binding entry in experiment [2] and in experiment [1] was “binds” throughout.

For “Microtubule Associated Protein 1B (from UniProt P14873 1-2464)”, the binding entry in experiment [2] and in experiment [1] was “binds” throughout. On to “Janus Kinase 1 (from UniProt P52332 1-1153)”, for which the binding result in experiment [2] is on record as “binds”. “Alpha II-spectrin (from UniProt P16546 1-2472)”: the binding entry in experiment [2] and in experiment [1] was “binds” in each case. As to “Dihydropyrimidinase Like 3 (from UniProt Q62188 1-570)”, the binding result in experiment [2] was “binds”.

On to “Collapsin Response Mediator Protein 1 (from UniProt P97427 1-572)”, for which the binding result in experiment [2] is on record as “binds”.

As for “Capping Actin Protein Of Muscle Z-Line Subunit Alpha 2 (from UniProt P47754 1-286)”, the binding result in experiment [2] and in experiment [1] was “binds” throughout. As for “Myosin XVIIIA (from UniProt Q9JMH9 1-2050)”, the binding entry in experiment [2] and in experiment [1] was “binds” in each case. As for “Protein Phosphatase 1 Regulatory Subunit 9B (from UniProt Q6R891 1-817)”, the binding entry in experiment [1] was “binds”. The same measure, in the same setting: in the case of “Ribosomal Protein L29 (from UniProt P47915 1-160)” it was “binds”.

With “Myosin Heavy Chain 14 (from UniProt Q6URW6 1-2000)”, the binding entry in experiment [2] is reported as “binds”. The same measure, in the same setting: in the case of “ATP synthase F1 subunit alpha (from UniProt Q03265 44-553)” it was “binds”. For “Microtubule-associated protein 1A (from UniProt Q9QYR6 1-2776)”, the binding result in experiment [3] is given as “binds”. Turning to “Serine/Arginine Repetitive Matrix 2 (from UniProt Q8BTI8 1-2703)”, the binding result in experiment [2] is “binds”. Regarding “LIM Domain And Actin Binding 1 (from UniProt Q9ERG0 1-753)”, in experiment [1], the binding entry was “binds”. For Ankyrin 2 (from UniProt Q8C8R3 1-3898), the binding entry in experiment [1] was “binds”. “Eukaryotic translation initiation factor 4B (from UniProt Q8BGD9 1-611)”: the binding result in experiment [2] and in experiment [1] was “binds” each time. Consider “TRIO and F-actin Binding Protein (from UniProt Q99KW3 1-2014)”, for which the binding entry in experiment [1] is “binds”.

For the substance “Zinc Finger C2HC-Type Containing 1A (from UniProt Q8BJH1 1-324)”, the binding result in experiment [2] is listed as “binds”.

The record behind these values is PMC11408250.
